# Laboratory results taken from patent US8313744B2, “Composition for the prevention and treatment of absence seizures comprising PKC agonist as an effective ingredient” (Korea Institute of Science and Technology, priority 2010, dated 2012).
# At least one compound was matched to its structure with a doubt left.
# System: PLCβ4 knock-out mouse
# Assay: Change of SWD after injection of PKC agonist or calcium channel blocker into the thalamus relay nuclei, EEG measurement
# Assay type: in vivo
# Details: 1 nmol injected into thalamus relay nuclei
smiles,measurement,value
COC(=O)C1=C(C)NC(C)=C(C(=O)OC)C1c1ccccc1[N+](=O)[O-] [nifedipine],SWD (hourly number) in EEG,not changed
